Results are given in words; binding and its absence hold for the method and conditions named. In cells and extracts the contact can be indirect. Some entries that bind do so weakly or less than the wild type.
Legend:
[1] = target: T1, synaptosomal-associated protein 23 (SNAP23) (human (endogenous in HUVEC)) (UniProt O00161); experiment: co-IP; HUVEC lysate (50 mM Tris-HCl pH 7.4, 100 mM NaCl, 1% NP-40, 1 mM EDTA); IP with SNAP23 antibody or control IgG overnight at 4°C, protein A/G plus-agarose beads; IB vimentin; cells static, or exposed to PS or OS for 1 h
T1 sequence: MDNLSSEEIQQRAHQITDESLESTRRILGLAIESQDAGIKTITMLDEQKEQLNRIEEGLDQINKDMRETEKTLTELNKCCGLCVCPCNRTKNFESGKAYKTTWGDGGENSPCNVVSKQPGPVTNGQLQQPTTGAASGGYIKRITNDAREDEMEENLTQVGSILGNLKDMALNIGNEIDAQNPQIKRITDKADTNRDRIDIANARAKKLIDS

Chains of the proteins cited; added tags and fusions are not shown.
UniProt P08670: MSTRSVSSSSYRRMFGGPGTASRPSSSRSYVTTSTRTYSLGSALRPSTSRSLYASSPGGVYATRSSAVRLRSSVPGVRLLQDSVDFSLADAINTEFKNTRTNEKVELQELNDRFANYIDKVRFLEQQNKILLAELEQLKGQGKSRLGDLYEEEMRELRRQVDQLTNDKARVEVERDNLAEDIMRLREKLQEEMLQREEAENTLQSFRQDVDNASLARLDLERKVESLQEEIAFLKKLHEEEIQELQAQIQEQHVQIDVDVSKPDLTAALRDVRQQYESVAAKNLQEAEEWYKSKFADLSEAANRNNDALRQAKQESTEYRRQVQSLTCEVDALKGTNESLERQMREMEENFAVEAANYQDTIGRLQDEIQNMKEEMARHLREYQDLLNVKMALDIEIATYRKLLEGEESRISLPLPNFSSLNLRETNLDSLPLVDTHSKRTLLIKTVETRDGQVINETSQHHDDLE

[2] = target: T1, synaptosomal-associated protein 23 (SNAP23) (human (endogenous in HUVEC)); experiment: proximity ligation; Duolink in situ PLA in fixed, saponin-permeabilised HUVECs sheared by PS or OS for 1 h; primary antibodies against SNAP23 and vimentin

In the case of vimentin (from UniProt P08670 1-466), the binding [1] is reported as “binds” and the binding [2] is reported as “binds”.

Source: PMC7674309
